# Where “and” joins values, the source holds several entries; their conditions need not be identical. Equal entries are not always repeated. The inconclusive results got no clear call from the source; some entries with a clear call stand among them for comparison. Where the call is inconclusive, the potency comes from a doubtful curve fit. Calls of active or inactive are those of the source. The calls were made as follows: active = hit-call score of the fitted dose curve at least 0.9, where 1 is the maximum; inconclusive = response in the unintended direction; inactive = score below 0.9.
# By UniProt entry, the sequences of proteins in these tests, tags left out.
# UniProt P55055, whole entry, looked up: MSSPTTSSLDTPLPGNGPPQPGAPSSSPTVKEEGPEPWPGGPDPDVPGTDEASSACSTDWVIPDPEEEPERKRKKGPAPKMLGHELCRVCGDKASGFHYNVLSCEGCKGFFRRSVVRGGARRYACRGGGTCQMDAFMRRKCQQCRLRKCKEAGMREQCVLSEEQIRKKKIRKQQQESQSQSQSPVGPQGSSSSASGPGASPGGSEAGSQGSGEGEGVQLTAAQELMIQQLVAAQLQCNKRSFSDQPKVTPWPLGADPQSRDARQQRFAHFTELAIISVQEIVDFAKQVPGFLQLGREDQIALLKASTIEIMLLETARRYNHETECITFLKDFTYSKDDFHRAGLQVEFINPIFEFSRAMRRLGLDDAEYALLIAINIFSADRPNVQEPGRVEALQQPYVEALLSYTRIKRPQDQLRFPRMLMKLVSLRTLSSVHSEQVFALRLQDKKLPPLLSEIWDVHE
# Target: Oxysterols receptor LXR-beta (Homo sapiens) (UniProt P55055)
# Test: ATG_LXRb_TRANS: Attagene TRANS-FACTORIAL HepG2 Assay for human Liver X Receptor beta (LXRb) (AID 2282981)
# Details: HepG2 Attagene TRANS GAL4-LXRb reporter, mRNA
# Experimental: ATG_TRANS is a cell-based, multiplexed-readout assay that uses HepG2, a human liver cell line, with measurements taken at 24 hours after chemical dosing in a 24-well plate.ATG_LXRb_TRANS is one of 30 assay component(s) measured or calculated from the ATG_TRANS assay. It is designed to make measurements of mRNA induction, a form of inducible reporter, as detected with fluorescence intensity signals by Reverse transcription polymerase chain reaction (RT-PCR) and Capillary electrophoresis technology.Data from the assay component ATG_LXRb_TRANS was analyzed into 1 assay endpoint. This assay endpoint, ATG_LXRb_TRANS, was analyzed in the positive analysis fitting direction relative to DMSO as the negative control and baseline of activity. Using a type of inducible reporter, measures of mRNA for gain-of-signal activity can be used to understand the reporter gene at the transcription factor-level as they relate to the gene NR1H2. Furthermore, this assay endpoint can be referred to as a primary readout, because this assay has produced multiple assay endpoints where this one serves a reporter gene function. To generalize the intended target to other relatable targets, this assay endpoint is annotated to the nuclear receptor intended target family, where the subfamily is non-steroidal.
# Human liver HepG2 cells are transiently transfected with multiple reporter transcription units (MRTUs) in 6-well plates using FuGene 6 reagent (Roche; 3 ml FuGene/1 mg DNA). The MRTU constructs are regulated by a cis-regulating element (promoter). […] A major difference between the CIS and TRANS system is that in CIS activities of endogenous TFs are measured, whereas the TRANS assay evaluates changes in activities of exogenous, chimeric NR-Gal4 proteins. […] At the end of 24 hour incubation, total RNA was isolated using TriZol reagent (Invitrogen). The isolated RNA is then reverse-transcribed using oligo(dT) primer and Mo-MLV reverse transcriptase (Invitrogen) with DNAse I (Ambion) treatment for 30 min. The one-tenth of the produced cDNA was amplified by PCR using Taq DNA polymerase (Invitrogen) and two reporter sequence-specific primers. The PCR products were fluorescently labeled by primer extension with 6-arboxyfluorescein (6-FAM) 5'-labeled reporter sequence-specific primer (2 min at 95 C, 20 s at 68 C and 10 min at 72 C) and these products were digested with 5U of HpaI (New England Biolabs) for 2h at 37 C. The fragments were purified using Qiaquick PCR columns (Qiagen), analyzed on an ABI 3130xL genetic analyzer (Applied Biosystems) with peak positions identified by using a set of X-rhodamine (ROX)-labeled MapMarker1000 molecular weight standards (BioVentures). The raw capillary electrophoresis data was processed using Attagraph software (Attagene).
Structure (SMILES),outcome,AC50
CCOP(=S)(OCC)OP(=S)(OCC)OCC,inactive,–
N#CCCO,inactive,–
C=CCO,–,inconclusive: 0.00914 µM
COP(=S)(OC)Oc1c(Cl)cc(C)cc1Cl,inactive,–
Clc1ccc(COC(Cn2ccnc2)c2ccc(Cl)cc2Cl)cc1 (stereo not given),–,inconclusive: 15.2 µM
O=NN1CCCC1,inactive,–
CCCN(CC)CC1COC2(CCC(C(C)(C)C)CC2)O1 (stereo not given),inactive,–
CCOP(=S)(OCC)Oc1nc(Cl)n(C(C)C)n1,–,active: 16.4 µM
CCC(C)c1cc(C(C)(C)C)cc(-n2nc3ccccc3n2)c1O (stereo not given),–,inconclusive: 50 µM
N#CCc1ccc(Cl)cc1,–,inconclusive: 100 µM
CCCCCCCCOC(=O)c1ccc(C(=O)OCCCCCCCC)c(C(=O)OCCCCCCCC)c1,–,inconclusive: 101 µM
N#CC(c1ccccc1)c1ccccc1,–,inconclusive: 26.7 µM
Nc1c(Cl)c(Cl)c(Cl)c(Cl)c1Cl,–,active: 26.1 µM
CCNc1nc(NC(C)C)nc(SC)n1,inactive,–
CCN(CC)C1CCCCC1,–,inconclusive: 100 µM
O=C(OC1CCCCC1)c1ccccc1C(=O)OC1CCCCC1,–,inconclusive: 1.3 µM

# Quoted at random: two compounds from above, in no set order.
Structure (SMILES),outcome,AC50
N#CCc1ccc(Cl)cc1,–,inconclusive: 100 µM
CCN(CC)C1CCCCC1,–,inconclusive: 100 µM

# Additional records.

Structure (SMILES),outcome,AC50
O=C1C=CC(=O)C=C1,inactive,–
CCSC(C)CC1CC(=O)C(C(CC)=NOC/C=C/Cl)=C(O)C1 (stereo not given),–,inconclusive: 50 µM
CCN(CC)C(=O)Cl,inactive,–
CN(N=O)c1ccc([N+](=O)[O-])cc1,–,inconclusive: 0.0843 µM
Clc1nc(Cl)nc(Cl)n1,–,inconclusive: 172 µM
CN(CCCC(=O)c1cccnc1)N=O,–,inconclusive: 161 µM
Cc1ccccc1CO[C@@H]1C[C@@]2(C(C)C)CC[C@]1(C)O2,inactive,–
CC(C)N(C(=O)SCC(Cl)=C(Cl)Cl)C(C)C,–,active: 20.1 µM
CCOP(=S)(OCC)SCn1c(=O)oc2cc(Cl)ccc21,inactive,–
CCCCC(C#N)(Cn1cncn1)c1ccc(Cl)cc1 (stereo not given),inactive,–
COC[C@H](C)N(C(=O)CCl)c1c(C)csc1C,inactive,–
CCOCCOC(C)=O,–,inconclusive: 0.00914 µM
CC(C)CP(=S)(S)CC(C)C,–,inconclusive: 1.89 µM
CCNCC,inactive,–
C#CC1(O)CCCCC1,–,inconclusive: 100 µM
Clc1ccc(C(Cl)(Cl)Cl)cc1,inactive,–
Nc1ccc([N+](=O)[O-])cc1,inactive,–

# From PubChem BioAssay (EPA / NIEHS)
